# Results are given in words; binding and its absence hold for the method and conditions named. Binding seen in cells or lysates may run through a third protein. Some results given as binding are weak or reduced against the parent protein; the word gives no strength. For some of these results: Sequences can lack the tags named with a protein.
# Chains of the proteins cited; added tags and fusions are not shown. Residues count along the entry.
# UniProt P68104, residues 2-462: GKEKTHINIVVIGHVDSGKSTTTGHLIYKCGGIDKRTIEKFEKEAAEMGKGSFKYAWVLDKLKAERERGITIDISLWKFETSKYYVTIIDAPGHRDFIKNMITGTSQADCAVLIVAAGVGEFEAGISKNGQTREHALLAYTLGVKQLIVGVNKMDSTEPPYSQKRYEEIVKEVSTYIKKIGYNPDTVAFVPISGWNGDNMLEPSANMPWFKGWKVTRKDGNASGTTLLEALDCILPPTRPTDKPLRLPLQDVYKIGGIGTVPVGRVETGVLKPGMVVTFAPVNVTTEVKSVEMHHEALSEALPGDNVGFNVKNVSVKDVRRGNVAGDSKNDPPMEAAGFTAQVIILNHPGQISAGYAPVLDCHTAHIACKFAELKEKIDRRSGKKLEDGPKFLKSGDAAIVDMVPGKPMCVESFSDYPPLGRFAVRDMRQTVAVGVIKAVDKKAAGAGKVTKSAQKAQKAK
# UniProt P03430: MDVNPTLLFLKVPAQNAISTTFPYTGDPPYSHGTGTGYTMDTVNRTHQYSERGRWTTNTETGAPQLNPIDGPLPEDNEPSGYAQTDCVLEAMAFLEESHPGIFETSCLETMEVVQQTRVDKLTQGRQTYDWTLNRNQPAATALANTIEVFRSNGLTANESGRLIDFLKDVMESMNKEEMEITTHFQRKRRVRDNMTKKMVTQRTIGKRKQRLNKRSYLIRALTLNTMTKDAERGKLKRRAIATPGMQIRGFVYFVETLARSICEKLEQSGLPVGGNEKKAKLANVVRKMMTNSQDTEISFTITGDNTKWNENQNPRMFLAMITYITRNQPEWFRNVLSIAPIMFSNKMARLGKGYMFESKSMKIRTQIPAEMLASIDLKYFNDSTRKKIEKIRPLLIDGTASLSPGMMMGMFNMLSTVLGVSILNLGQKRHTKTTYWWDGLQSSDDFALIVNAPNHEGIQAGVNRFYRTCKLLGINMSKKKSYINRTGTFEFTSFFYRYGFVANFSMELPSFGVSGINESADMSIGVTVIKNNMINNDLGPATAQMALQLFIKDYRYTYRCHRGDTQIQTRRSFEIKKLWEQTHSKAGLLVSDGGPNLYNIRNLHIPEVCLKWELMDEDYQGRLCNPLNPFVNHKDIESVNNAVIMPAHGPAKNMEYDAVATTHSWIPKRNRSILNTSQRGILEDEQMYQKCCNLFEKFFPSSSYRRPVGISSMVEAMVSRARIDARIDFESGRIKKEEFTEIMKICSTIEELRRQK
# UniProt P03427: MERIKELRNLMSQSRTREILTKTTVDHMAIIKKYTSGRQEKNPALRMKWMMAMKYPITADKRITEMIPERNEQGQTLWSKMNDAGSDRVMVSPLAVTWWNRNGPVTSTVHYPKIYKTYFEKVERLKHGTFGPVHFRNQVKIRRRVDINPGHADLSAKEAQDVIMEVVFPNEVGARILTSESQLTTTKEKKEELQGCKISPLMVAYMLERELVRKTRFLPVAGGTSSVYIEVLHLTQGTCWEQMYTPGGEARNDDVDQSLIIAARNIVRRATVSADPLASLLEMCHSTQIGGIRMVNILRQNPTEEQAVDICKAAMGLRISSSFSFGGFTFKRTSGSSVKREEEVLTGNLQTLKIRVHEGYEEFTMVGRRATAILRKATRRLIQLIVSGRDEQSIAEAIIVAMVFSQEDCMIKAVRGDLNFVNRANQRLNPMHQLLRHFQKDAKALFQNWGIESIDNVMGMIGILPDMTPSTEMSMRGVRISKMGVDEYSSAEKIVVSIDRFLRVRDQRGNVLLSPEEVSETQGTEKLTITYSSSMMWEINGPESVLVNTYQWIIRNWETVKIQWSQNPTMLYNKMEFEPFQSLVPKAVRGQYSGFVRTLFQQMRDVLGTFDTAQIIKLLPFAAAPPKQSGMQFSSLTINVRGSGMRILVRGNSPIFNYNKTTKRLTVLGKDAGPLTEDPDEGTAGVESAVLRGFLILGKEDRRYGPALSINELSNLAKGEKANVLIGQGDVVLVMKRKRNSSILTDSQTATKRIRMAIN
# Legend:
# [1] = target: GST-EF1α fusion protein (human) (UniProt P68104); assay: pull-down
# [2] = target: T1, GST-p23 fusion protein (human) (UniProt Q15185); assay: pull-down
# T1 sequence: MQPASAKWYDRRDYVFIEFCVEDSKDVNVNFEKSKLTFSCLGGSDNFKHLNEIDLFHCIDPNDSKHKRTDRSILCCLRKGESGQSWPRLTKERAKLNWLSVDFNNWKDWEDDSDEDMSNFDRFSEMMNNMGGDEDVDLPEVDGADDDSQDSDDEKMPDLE
Substance,binding [1],binding [2]
"WSN-PB1 protein, transiently expressed (from UniProt P03430 1-757)",no binding,binds
"WSN-PB2 protein, transiently expressed (from UniProt P03427 1-759)",no binding,binds
